The experiment deals with L1210 leukemia ip in BDF1 mice, survival T/C. The experiment in a line: NCI In Vivo Anticancer Drug Screen. Data for tumor model L1210 Leukemia (intraperitoneal) in B6D2F1 (BDF1) mice. Conditions: T/C endpoint: mean survival time, higher T/C = longer survival.
[1] abbreviates: dose: 400.0 mg/kg/injection, schedule: Q01DX001 (ip), vehicle: carboxymethylcellulose (CMC).
Setting [2] is: dose: 900.0 mg/kg/injection, schedule: Q01DX Z (ip), vehicle: other.
The mark [3] stands for this setting: dose: 1200.0 mg/kg/injection, schedule: Q01DX Z (ip), vehicle: other.
The mark [4] stands for this setting: dose: 300.0 mg/kg/injection, schedule: Q01DX001 (ip), vehicle: saline.
[5] abbreviates: dose: 400.0 mg/kg/injection, schedule: Q01DX009 (ip), vehicle: saline with Tween-80.

Each structure is given as a SMILES string. The list is a part of this screen's results and no random one: it gathers tests that were run many times, whatever their T/C, doses with no T/C, and many T/C values between a quarter and a half above the control. Further doses and runs are listed elsewhere. T/C: endpoint of the treated group in % of that of the vehicle group. Some entries give survivors of the animals treated and no T/C: the source files T/C as zero there, which appears to mark a toxic dose or a test without result, not a measured value. Some survivor counts are full or nearly so, which does not show that the dose was tolerated: survival well below the control is almost never listed, so the zero probably covers shortened survival too. Survivors were counted at the toxicity check, usually on the fifth day, unless a day is given; later deaths do not show. Schedule codes are those of the source, taken here to give the interval after Q, in days (D) or hours (H), and the number of doses after X. Some schedules carry Z or #; the key to these is not given. For survival time, this PubChem deposit counts one and a half times the control or more as active, and values a quarter to a half above the control carry no call in these data; other NCI protocols may use other cut-offs. Some T/C values are followed by the survivors on the day toxicity was checked, most often the fifth; where none is given, no animal had died by that day. Some doses were run more than once; their values stand side by side, smallest first.

For `O=NN(CCCl)C(=O)Nc1c[nH]c2ccccc12`, the T/C was 133 % of control (dose: 177.0 mg/kg/injection, schedule: Q01DX001 (ip), vehicle: carboxymethylcellulose (CMC)); 128 % of control (dose: 266.0 mg/kg/injection, schedule: Q01DX001 (ip), vehicle: carboxymethylcellulose (CMC)); 125 % of control under setting [1]; 134 % of control (dose: 400.0 mg/kg/injection, schedule: Q01DX009 (ip), vehicle: carboxymethylcellulose (CMC)); 142 % of control (dose: 600.0 mg/kg/injection, schedule: Q01DX001 (ip), vehicle: carboxymethylcellulose (CMC)).

For the compound `CN(C)c1ccc2nc3c(C(=O)O)cc(=O)c(O)c-3oc2c1`, the survivor count by setting is: (dose: 200.0 mg/kg/injection, schedule: Q01DX001 (ip), vehicle: carboxymethylcellulose (CMC)) 2 of 4; under setting [1], 0 of 4.

Regarding `CCNC1(c2ccc(Cl)cc2)CCCCC1=O` (centres undefined), the survivor count is recorded as 1 of 6 (dose: 200.0 mg/kg/injection, schedule: Q01DX009 (ip), vehicle: saline) and 1 of 6 (dose: 400.0 mg/kg/injection, schedule: Q04DX003 (ip), vehicle: saline).

For `O=c1[nH]c(=O)n(C2CC(O)C(CO)O2)cc1I` (centres undefined), the T/C (dose: 125.0 mg/kg/injection, schedule: Q#A X Z (ip), vehicle: other) was 131 % of control; the T/C (dose: 250.0 mg/kg/injection, schedule: Q#A X Z (ip), vehicle: other) is 133 % of control; the T/C (dose: 300.0 mg/kg/injection, schedule: Q01DX009 (ip), vehicle: carboxymethylcellulose (CMC)) is 135 % of control [8 of 10 alive]; the T/C (dose: 300.0 mg/kg/injection, schedule: Q## X003 (ip), vehicle: carboxymethylcellulose (CMC)) is 141 % of control; the T/C (dose: 400.0 mg/kg/injection, schedule: Q01DX Z (ip), vehicle: other) was 126 % of control; the T/C (dose: 400.0 mg/kg/injection, schedule: Q01DX Z (ip), vehicle: saline) is 127 % of control. Moreover, the T/C (dose: 600.0 mg/kg/injection, schedule: Q01DX009 (ip), vehicle: saline) was 131 % of control; the T/C (dose: 600.0 mg/kg/injection, schedule: Q01DX Z (ip), vehicle: other) was 139 and 145 % of control; the T/C (dose: 600.0 mg/kg/injection, schedule: Q01DX Z (ip), vehicle: saline) was 136 and 137 % of control [6 of 7 alive]; the T/C under setting [2] was 141 % of control; the T/C (dose: 1000.0 mg/kg/injection, schedule: Q01DX010 (ip), vehicle: saline) is 126 % of control; the T/C (dose: 1000.0 mg/kg/injection, schedule: Q01DX Z (ip), vehicle: other) is 127 % of control. Besides, the T/C is, setting by setting: (dose: 1200.0 mg/kg/injection, schedule: Q01DX009 (ip), vehicle: saline) 137 % of control; under setting [3], 130 % of control; (dose: 2000.0 mg/kg/injection, schedule: Q01DX Z (ip), vehicle: other) 143 % of control; (dose: 2400.0 mg/kg/injection, schedule: Q## X024 (ip), vehicle: carboxymethylcellulose (CMC)) 134 % of control [9 of 10 alive]. Besides, the survivor count is listed as 0 of 6 under setting [2]; 8 of 10 (dose: 1200.0 mg/kg/injection, schedule: Q01DX005 (ip), vehicle: carboxymethylcellulose (CMC)); 9 of 10 (dose: 1200.0 mg/kg/injection, schedule: Q01DX009 (ip), vehicle: carboxymethylcellulose (CMC)); 0 of 6 under setting [3]; 0 of 6 (dose: 1800.0 mg/kg/injection, schedule: Q01DX Z (ip), vehicle: other); 5 of 10 (dose: 2400.0 mg/kg/injection, schedule: Q01DX005 (ip), vehicle: carboxymethylcellulose (CMC)). Also, the survivor count (dose: 2500.0 mg/kg/injection, schedule: Q01DX Z (ip), vehicle: other) was 0 of 6.

On to `ClCC(Br)CBr` (centres undefined), for which, under setting [4], the survivor count is 1 of 6.

Regarding `CCCCCCC(/C=N/N=C(N)N)=N\N=C(N)N`, the survivor count is 1 of 6 (dose: 60.0 mg/kg/injection, schedule: Q01DX Z (ip), vehicle: carboxymethylcellulose (CMC)); 0 of 6 (dose: 120.0 mg/kg/injection, schedule: Q01DX Z (ip), vehicle: carboxymethylcellulose (CMC)); 2 of 6 (dose: 120.0 mg/kg/injection, schedule: Q01DX Z (oral), vehicle: carboxymethylcellulose (CMC)).

As to `C[n+]1ccc(N2CCCCC2)c2ccc(Cl)cc21`, the survivor count runs as follows: (dose: 4.0 mg/kg/injection, schedule: Q01DX001 (ip), vehicle: saline) 0 of 6; (dose: 8.0 mg/kg/injection, schedule: Q01DX001 (ip), vehicle: saline) 0 of 6; (dose: 10.0 mg/kg/injection, schedule: Q01DX001 (ip), vehicle: saline) 0 of 6; (dose: 20.0 mg/kg/injection, schedule: Q01DX001 (ip), vehicle: saline) 2 of 6; (dose: 40.0 mg/kg/injection, schedule: Q01DX001 (ip), vehicle: saline) 0 of 6; (dose: 75.0 mg/kg/injection, schedule: Q01DX001 (ip), vehicle: saline) 0 of 6. For the same compound, the survivor count is listed as 0 of 6 (dose: 150.0 mg/kg/injection, schedule: Q01DX001 (ip), vehicle: saline) and 0 of 6 under setting [4].

`CC(C)CC(CO)Cc1nc2ccccc2[nH]1` (centres undefined): the survivor count is recorded as 3 of 3 (dose: 100.0 mg/kg/injection, schedule: Q04DX002 (ip), vehicle: Klucel (hydroxypropylcellulose) (HPC)); 0 of 6 (dose: 400.0 mg/kg/injection, schedule: Q04DX002 (ip), vehicle: other); 2 of 6 (dose: 400.0 mg/kg/injection, schedule: Q04DX003 (ip), vehicle: other).

For the compound `C=CCCC1(Cc2ccccc2)C(=O)NC(=O)NC1=O`, the survivor count under setting [4] is 2 of 6.

For the compound `CCNC(C)(C)C(SS(=O)(=O)O)c1ccc(Cl)s1` (centres undefined), the survivor count under setting [5] is 6 of 6.

As for `Cc1cc([N+](=O)[O-])ccn1`, the survivor count under setting [5] is 0 of 6.

For `Cc1cc(C(=O)Nc2ccc(NC3=NCCN3)cc2)cc(C(=O)Nc2ccc(NC3=NCCN3)cc2)c1`, the survivor count (dose: 24.0 mg/kg/injection, schedule: Q01DX Z (ip), vehicle: saline) was 0 of 6; the survivor count (dose: 30.0 mg/kg/injection, schedule: Q01DX Z (ip), vehicle: saline) is 0 of 6; the survivor count (dose: 60.0 mg/kg/injection, schedule: Q01DX Z (ip), vehicle: saline) was 0 of 6; the survivor count (dose: 120.0 mg/kg/injection, schedule: Q01DX Z (ip), vehicle: saline) was 0 of 6.

Take `CC1(C)N=C(N)N=C(N)N1c1cccc(CCCCc2ccc(Cl)c(S(=O)(=O)F)c2)c1`: the survivor count was 6 of 6 (dose: 25.0 mg/kg/injection, schedule: Q01DX009 (ip), vehicle: saline sonified) and 5 of 6 (dose: 50.0 mg/kg/injection, schedule: Q01DX009 (ip), vehicle: saline sonified).

Regarding `CCCCCCCCCCCCNCc1ccc(O)cc1`, the survivor count (dose: 200.0 mg/kg/injection, schedule: Q01DX001 (ip), vehicle: other) is 3 of 6 and the survivor count (dose: 400.0 mg/kg/injection, schedule: Q01DX001 (ip), vehicle: other) is on record as 1 of 6.

Take `COC1OC2COC(c3ccccc3)OC2C(OS(=O)(=O)c2ccc(C)cc2)C1OS(=O)(=O)c1ccc(C)cc1` (centres undefined): the survivor count (dose: 400.0 mg/kg/injection, schedule: Q04DX003 (ip), vehicle: saline with Tween-80) is reported as 6 of 6.

(Values after PubChem BioAssay AID248 (DTP/NCI, 2004).)
